Source: article PMC12048998
Results are given in words; binding and its absence hold for the method and conditions named. In cells and extracts the contact can be indirect. These calls come from enrichment with a bait or labelling near it, and not all partners need be listed.

Protein sequences, listed by entry. Tags and fused reporters are not part of them.
UniProt P54578: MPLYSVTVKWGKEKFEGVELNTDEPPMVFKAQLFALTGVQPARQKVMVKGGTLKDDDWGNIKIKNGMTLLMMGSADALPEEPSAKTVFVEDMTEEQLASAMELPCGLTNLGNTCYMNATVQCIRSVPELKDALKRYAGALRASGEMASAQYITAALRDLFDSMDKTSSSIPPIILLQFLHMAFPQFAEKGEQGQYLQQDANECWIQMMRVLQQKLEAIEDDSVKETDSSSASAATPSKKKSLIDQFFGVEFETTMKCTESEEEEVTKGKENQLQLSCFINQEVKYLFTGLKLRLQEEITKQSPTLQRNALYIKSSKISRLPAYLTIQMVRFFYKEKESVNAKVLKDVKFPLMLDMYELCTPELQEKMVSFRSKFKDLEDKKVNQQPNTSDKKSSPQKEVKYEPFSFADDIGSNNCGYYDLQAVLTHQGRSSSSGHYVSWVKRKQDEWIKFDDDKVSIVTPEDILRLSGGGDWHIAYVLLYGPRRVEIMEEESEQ

Target: USP14 (human (endogenous in LoVo and SW48)) (UniProt P54578)
Experiment: affinity purification with mass spectrometry; immunoprecipitation with USP14-specific antibodies (IgG as control), silver staining and mass spectrometry; cells not given

B1: BAG4 (protein, UniProt O95429 1-457)
chain: MSALRRSGYGPSDGPSYGRYYGPGGGDVPVHPPPPLYPLRPEPPQPPISWRVRGGGPAETTWLGEGGGGDGYYPSGGAWPEPGRAGGSHQEQPPYPSYNSNYWNSTARSRAPYPSTYPVRPELQGQSLNSYTNGAYGPTYPPGPGANTASYSGAYYAPGYTQTSYSTEVPSTYRSSGNSPTPVSRWIYPQQDCQTEAPPLRGQVPGYPPSQNPGMTLPHYPYGDGNRSVPQSGPTVRPQEDAWASPGAYGMGGRYPWPSSAPSAPPGNLYMTESTSPWPSSGSPQSPPSPPVQQPKDSSYPYSQSDQSMNRHNFPCSVHQYESSGTVNNDDSDLLDSQVQYSAEPQLYGNATSDHPNNQDQSSSLPEECVPSDESTPPSIKKIIHVLEKVQYLEQEVEEFVGKKTDKAYWLLEEMLTKELLELDSVETGGQDSVRQARKEAVCKIQAILEKLEKKGL
For B1, the binding was “binds”.
